# Source: doi:10.1101/2021.09.14.460262 (bioRxiv, 2021)
# No constants are given. Whether binding was seen depends on the method and setting.
# T1: Escherichia coli outer membrane protein G (OmpG), fluorescently labeled (Escherichia coli) (UniProt P76045)
# T1 sequence (chain, fluorescent label (dye not named)): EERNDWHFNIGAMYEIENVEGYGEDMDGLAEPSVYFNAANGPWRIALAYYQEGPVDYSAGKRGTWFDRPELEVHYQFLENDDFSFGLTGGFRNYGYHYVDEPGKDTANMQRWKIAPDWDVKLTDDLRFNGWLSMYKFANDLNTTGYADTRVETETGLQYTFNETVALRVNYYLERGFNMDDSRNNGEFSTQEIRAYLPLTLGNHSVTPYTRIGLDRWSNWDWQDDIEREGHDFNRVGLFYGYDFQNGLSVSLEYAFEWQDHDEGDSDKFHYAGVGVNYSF
# B1: recombinant full length His6-BID (natural protein, UniProt P70444 1-195, looked up)
# chain: MDSEVSNGSGLGAEHITDLLVFGFLQSSGCTRQELEVLGRELPVQAYWEADLEDELQTDGSQASRSFNQGRIEPDSESQEEIIHNIARHLAQIGDEMDHNIQPTLVRQLAAQFMNGSLSEEDKRNCLAKALDEVKTAFPRDMENDKAMLIMTMLLAKKVASHAPSLLRDVFHTTVNFINQNLFSYVRNLVRNEMD
# Molecular target: T1, Escherichia coli outer membrane protein G (OmpG), fluorescently labeled (Escherichia coli)
# Experiment: MST
binder,measurement,value
B1,binding,no binding (tested: 15 nM to 500 µM)
